Our source for the binding values is publication PMC6650902.

The test deals with T1, TAF1-TAP (S. cerevisiae) (UniProt P46677).
T1 sequence: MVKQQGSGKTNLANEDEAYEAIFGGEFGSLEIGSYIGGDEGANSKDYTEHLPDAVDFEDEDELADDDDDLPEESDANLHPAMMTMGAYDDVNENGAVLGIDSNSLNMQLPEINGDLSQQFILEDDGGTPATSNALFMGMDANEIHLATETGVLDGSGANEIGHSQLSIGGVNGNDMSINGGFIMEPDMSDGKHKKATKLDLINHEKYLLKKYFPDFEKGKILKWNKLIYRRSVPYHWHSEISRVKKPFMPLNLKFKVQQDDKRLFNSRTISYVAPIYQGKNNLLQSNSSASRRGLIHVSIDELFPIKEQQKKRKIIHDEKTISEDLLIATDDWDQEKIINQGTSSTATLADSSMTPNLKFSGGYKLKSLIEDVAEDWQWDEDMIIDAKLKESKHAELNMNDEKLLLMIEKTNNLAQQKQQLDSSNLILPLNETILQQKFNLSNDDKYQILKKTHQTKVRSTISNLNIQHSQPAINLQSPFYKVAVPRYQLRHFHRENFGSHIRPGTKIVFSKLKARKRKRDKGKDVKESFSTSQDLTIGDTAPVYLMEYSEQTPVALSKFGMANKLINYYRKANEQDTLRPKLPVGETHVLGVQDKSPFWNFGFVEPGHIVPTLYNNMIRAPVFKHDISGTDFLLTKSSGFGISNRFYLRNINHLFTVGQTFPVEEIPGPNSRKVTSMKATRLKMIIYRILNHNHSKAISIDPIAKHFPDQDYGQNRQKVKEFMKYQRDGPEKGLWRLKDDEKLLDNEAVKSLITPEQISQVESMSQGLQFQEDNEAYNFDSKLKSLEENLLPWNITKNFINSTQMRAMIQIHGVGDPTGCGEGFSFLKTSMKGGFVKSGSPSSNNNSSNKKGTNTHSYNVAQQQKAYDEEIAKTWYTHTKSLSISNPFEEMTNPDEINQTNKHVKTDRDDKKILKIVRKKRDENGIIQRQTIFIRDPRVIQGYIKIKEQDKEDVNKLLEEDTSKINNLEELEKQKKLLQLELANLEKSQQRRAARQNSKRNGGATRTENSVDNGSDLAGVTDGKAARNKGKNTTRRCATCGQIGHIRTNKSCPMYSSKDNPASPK
The experiment in a line: affinity purification with mass spectrometry; lysate of the TAF1-TAP strain on an IgG column; washes with 1 M and 50 mM potassium acetate; TEV protease elution; Superose 6 size exclusion (single peak at about 12.6 mL); subunits seen by SDS-PAGE and confirmed by mass spectrometry.

No constants are given. Whether binding was seen depends on the method and setting. In cells and extracts the contact can be indirect. A yes stands for co-enrichment or nearness to the bait. Other partners may have been found.

B1: TAF7 (protein, UniProt Q05021 1-590)
chain: MAVIRIKKPRGPGEKDQPLEGEPKLKRIRIKTKVTDEDIKPKPKLKINLKKKKESADGKEKKNSLKLKLNLKKNEEPVKKIHKAPKLRLKPIRIPGEAYDSEASDIEDDPLIESGVILRILPDIQLEFVKNSLESGDYSGISIKWKNERHAVVTINDVMYGAILVDLPTVIEVNKSVDRKNLLKTFDVSQMLLCIRPIQEEEEVYALEAPDTEDLVVKHFEGIEDEIWENKETFLKGYNGAPLSDMEAKHLKEIALKGYDYKHGISPPLYNVRNRRFRRKMDPNEIDYVEKVVDMLLKQDKQAEEVSYDLVDKSELQARQERVSSWENFKEEPGEPLSRPALKKEEIHTIASAVGKQGAEEEGEEGMEEEEEEDLDLGAAFESEEEGSGAEGDKEQQQEEVGDEVDQDTGGEDDDDDDDGDIEAAGGESESDDEKDENRQHTELLADELNELETTLAHTKHKLSKATNPLLKSRFIDSIKKLEKEAELKRKQLQQTEDSVQKQHQHRSDAETANNVEEEEEEEEEEEEEDEVDEDEEDDEENDEDEDNVHEREHIQENKVVRELDEAPAEETLDQNDLDMMMLFGAEGDE
On to B1, for which the binding entry is “binds”.

B2: TAF9 (protein, UniProt Q05027 1-157)
chain: MNGGGKNVLNKNSVGSVSEVGPDSTQEETPRDVRLLHLLLASQSIHQYEDQVPLQLMDFAHRYTQGVLKDALVYNDYAGSGNSAGSGLGVEDIRLAIAARTQYQFKPTAPKELMLQLAAERNKKALPQVMGTWGVRLPPEKYCLTAKEWDLEDPKSM
On to B2, for which the binding entry is on record as “binds”.

B3: TAF8 (protein, UniProt Q03750 1-510)
chain: MTSKTSESGTGTQSTIVQLRNLPDLTEISHLEIDAPVVEILKKTVLFQLNSLNICISNFALDELVNLVTVQMDGMFRNLHNLTLLQRRSQASQADLKLLLREFNLDAPSLYQQFQASEFIKSKHSTEYEKLMSWSSLAALPHNEEDEEDELNNIEEQQNEINVLLPPSNPLEKQIPSWLPNFPPDHTYKFTPEFNHPITDLKTIKKEIVKESQESEKALLNLNKSLSHISSASNTPQPPGLDDEDAIEQQLEIWGNALEERKPTITEKSFNENNIEQYAKYRVELARERVTKFEVNQLKRTKNPFLKISETLYLPESPHQSHKTIQKTIELQFRKSMTLFMHNLPKVQKLKKEKIRMAKEERAKSLKRRQEELISQRTKREQDEGHDLELLLNNEHARDAADDTTTPNALNNSTIVINTNAEDEDDDINLFGILGSSEDENEMSSMPAENLVAESEPPTMTAQDTTNTTPVAHNTTNIDATTSHSPHSTPNENAPTSPPADIATDHDITM
With B3, the binding result is “binds”.

B4: TAF10 (protein, UniProt Q12030 1-206)
chain: MDFEEDYDAEFDDNQEGQLETPFPSVAGADDGDNDNDDSVAENMKKKQKREAVVDDGSENAFGIPEFTRKDKTLEEILEMMDSTPPIIPDAVIDYYLTKNGFNVADVRVKRLLALATQKFVSDIAKDAYEYSRIRSSVAVSNANNSQARARQLLQGQQQPGVQQISQQQHQQNEKTTASKVVLTVNDLSSAVAEYGLNIGRPDFYR
In the case of B4, the binding entry is “binds”.
